Source: PMC4170623, “A novel class I HDAC inhibitor, MPT0G030, induces cell apoptosis and differentiation in human colorectal cancer cells via HDAC1/PKCδ and E-cadherin” (Oncotarget, 2014)

System: PC3
Assay: Sulforhodamine B (SRB) growth inhibition assay
Type: cell-based, human
Conditions: PC3, ± SE
Method: Cells were inoculated into 96-well plates in growth medium. After 24 h, cells were fixed with 10% trichloroacetic acid (TCA), to represent a measurement of the cell population at the time of drug addition (Tz). After incubation with vehicle (0.1% DMSO) or different concentrations of compound for 48 h (Tt), cells were fixed with 10% TCA and stained with 0.4% SRB. After staining, unbound SRB was removed by 1% acetic acid. Bound SRB was solubilized with 10 mM trizma base and the absorbance was measured at 515 nm. Percentage of growth inhibition was calculated as: 100−[(Tt-Tz)/(C-Tz)] ×100. Tt represents absorbance of compound-treated group, and C means absorbance of vehicle-treated group.

O=C(CCCCCCC(=O)Nc1ccccc1)NO [SAHA, suberanilohydroxamic acid, reference compound]
GI50: 0.23 ± 0.02 µM
